# The campaign covered roughly 360,000 compounds. About 7,500 (2.1%) were called active. The shares of active, inactive and inconclusive entries below differ from those in the screen. Calls come from the whole dose curve; as a rule, active = well fitted inhibition curve with a large enough effect; inconclusive = small, poorly fitted or top-dose-only effect, or effect the other way; inactive = flat fitted curve, though single readings scatter. A potency beside an inconclusive call is a rough fit, not a confirmed value.
# Assay: Nrf2 qHTS screen for inhibitors; note: nearly all actives have a fitted effect of over 60% in size
# Settings: A549 ARE-Fluc reporter, luciferase luminescence, 18-24 h; activity change, negative = inhibition: at 46 µM (top of the series)
# How it was run: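 A549 ARE_Fluc cells, 5000/well, 5% FBS OPTI-MEM; compounds in dose-response, 18-24 h at 37 °C/5% CO2; CellTiter-Fluor viability read (Ex 405/Em 525), then BugLite luciferase luminescence = Nrf2 activity.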
# % is set by controls: 0 for no effect and ±100 for the full control effect; potency is the fitted concentration of half-maximal effect.
Compound,Potency,"activity change, negative = inhibition"
CC(C)(C)[C@@H]1CCC(=O)N(CC[C@H](Sc2ccc(Br)cc2)c2ccccc2)CC1,"inconclusive: 29.1 µM [falling, single point]",–
CCn1c(O)c(/C=C2\C=Nc3ccccc32)sc1=O,"inconclusive: 16.4 µM [activator, partial curve]",–
COc1ccc(CC(=O)NCc2ccccc2)cc1,"inconclusive: 20.6 µM [activator, single point]",–
OCc1nc2ccccc2n1CCCOc1ccccc1,"inconclusive: 0.231 µM [activator, full curve]",–
COc1ccc(-c2cc([C@H]3[C@H]4C=CC[C@@H](C)[C@@H]4C(=O)N3Cc3ccccc3)ccc2F)cc1OC,"inconclusive: 32.6 µM [falling, single point]",–
CCOC(=O)C1(Cc2ccc(Cl)cc2)CCN(C(=O)CCc2ccncc2)CC1,"inconclusive: 32.6 µM [falling, single point]",–
Cc1cccc(NC(c2cccc(Cl)c2)c2ccc3cccnc3c2O)n1 (centres undefined),"inconclusive: 25.9 µM [falling, single point]",–
COc1cccc(C(=O)Nc2ccc(F)cc2F)c1,"inconclusive: 18.4 µM [activator, partial curve]",–
O=c1cc(-c2ccccc2Cl)oc2c(NS(=O)(=O)c3ccccc3OC(F)(F)F)ccc(O)c12,"inconclusive: 16.4 µM [falling, single point]",–
CCOC(=O)c1sc(NC(=O)Nc2cccc(Cl)c2)cc1C,–,inactive: -63.4%
O=C(c1ccc2nc(N3CCOCC3)sc2c1)N1CCN(c2ccc(Cl)cc2)CC1,"inconclusive: 20.6 µM [falling, partial curve, poor fit]",–
Cc1ccc2c(CC(=O)Nc3ccc(S(=O)(=O)N4CCC(C)CC4)cc3)coc2c1,"inconclusive: 29.1 µM [falling, single point]",–
CC(C)(C)c1ccc(-n2ncc3c2CCCC3NC(=O)CCN2CCCO2)cc1 (centres undefined),"inconclusive: 29.1 µM [falling, single point]",–
COCCCNC(=O)Cn1nnc(-c2ccc(NC(=O)c3ccccc3OC)cc2)n1,"inconclusive: 0.0041 µM [falling, full curve, poor fit]",–
CCC(=O)Nc1c2c(nn1-c1ccc(F)cc1)CS(=O)C2 (centres undefined),"inconclusive: 0.517 µM [activator, full curve, poor fit]",–
Cc1nn(-c2ccccc2)c2c1N(CCCC(=O)NCc1ccc(OC(C)C)cc1)C(=O)CS2,"inconclusive: 32.6 µM [falling, partial curve, poor fit]",–
COc1ccc(Cc2cc(NCc3ccccc3)c3ncn(C(C)C)c3c2)cc1,–,inactive: -16.1%
CCc1ccccc1NC(=O)Cn1nc(-c2cc(C)ccc2C)c2c(c1=O)CCCC2,"inconclusive: 25.9 µM [falling, single point]",–
CN(C)c1ccc(/C=C/C(=O)c2cccnc2)cc1,"inconclusive: 29.1 µM [activator, single point]",–
CCc1ccc(NC(=O)c2cnccn2)cc1,"inconclusive: 23.1 µM [activator, single point]",–
O=C(OCC(=O)N1CCCCC1)c1ccc2c(c1)C(=O)N(Cc1ccco1)C2=O,–,inactive: 2.75%
Cc1onc(-c2ccccc2Cl)c1-c1nc(-c2ccccn2)no1,–,inactive: -3.74%

Compound,Potency,"activity change, negative = inhibition"
Cc1[nH]n(C(N)=S)c(=O)c1N=Nc1ccc2ccccc2c1,"inconclusive: 10.3 µM [activator, partial curve]",–
Cc1nc2ccccc2c2oc(C(=O)N3CCc4ccccc4C3)cc12,"inconclusive: 14.6 µM [falling, partial curve, poor fit]",–
O=C(Nc1ccccc1OC(F)F)c1oc2ccccc2c1COc1ccccc1,–,inactive: -29.5%
CCCOc1ncnc2c1[nH]c1ccc(OC)cc12,"inconclusive: 29.1 µM [activator, single point]",–
Cc1ccnc(Nc2nc(-c3sc(C)nc3C)cs2)c1,"inconclusive: 29.1 µM [falling, single point]",–
CC(C)(Oc1ccc(Cl)cc1)C(=O)Nc1ccc(-c2nc3ncccc3o2)cc1,"inconclusive: 1.3 µM [falling, full curve]",–
COc1ccc(C(=O)c2ccsc2N)cc1,"inconclusive: 10.3 µM [activator, partial curve]",–
O=[N+]([O-])c1ccccc1N/N=C\c1ccccc1Cl,"inconclusive: 3.16 µM [activator, full curve]",–
COc1ccccc1N1CCN(S(=O)(=O)CCNC(=O)c2cc(=O)c3ccccc3o2)CC1,"inconclusive: 7.31 µM [falling, partial curve]",–
CCOC(=O)c1c(NC(=O)CSc2cn(CCNC(=O)c3ccc(OC)cc3)c3ccccc23)sc2c1CCC2,"inconclusive: 29.1 µM [falling, single point]",–
COc1ccccc1-c1cc(C(=O)Nc2c(C)nn(Cc3ccc(Cl)cc3)c2C)no1,active: 18.4 µM,–
COc1ccc(NC(=O)CSc2nc(-c3ccccc3)cc(-c3cc(OC)c(OC)c(OC)c3)c2C#N)c(OC)c1,–,inactive: -14.8%
O=[N+]([O-])c1cccc(-c2c[n+]3c(n2-c2ccccc2)SCC3)c1,"inconclusive: 18.4 µM [falling, partial curve, poor fit]",–
O=C(NCc1ccco1)c1cc2ccc(O)cc2oc1=O,–,inactive: 9.28%
CCCn1c(=O)c(C(=O)N/N=C/c2ccccc2F)c(O)c2ccccc21,"inconclusive: 25.9 µM [activator, partial curve, poor fit]",–
COc1ccc(-c2cn3nc(N4CCCC(C(=O)Nc5ccccc5F)C4)sc3n2)cc1 (centres undefined),"inconclusive: 29.1 µM [falling, single point]",–
Cc1cc(Cl)ccc1Oc1ncc(-c2ccc(Cl)cc2)cn1,"inconclusive: 11.6 µM [falling, partial curve, poor fit]",–
CC(=O)c1sc(NC(=O)CS(=O)(=O)c2ccccc2)nc1-c1ccccc1,"inconclusive: 9.2 µM [activator, partial curve, poor fit]",–
O=C(CCCc1cccs1)Nc1nccs1,"inconclusive: 18.4 µM [activator, single point]",–
CC(C)(C)C(=O)Nc1scc(-c2ccc(-c3ccccc3)cc2)c1C(=O)O,"inconclusive: 32.6 µM [falling, single point]",–
O=C(CSCc1ccc(Cl)cc1)Nc1ccc(O)cc1C(=O)O,"inconclusive: 2.31 µM [falling, partial curve, poor fit]",–
O=C(Nc1nsc(-c2ccccc2)n1)c1ccncc1,"inconclusive: 29.1 µM [activator, single point]",–

Compound,Potency,"activity change, negative = inhibition"
O=C(CCS(=O)(=O)c1ccc(Br)cc1)N1CCN(c2ccccc2Cl)CC1,"inconclusive: 20.6 µM [falling, single point]",–
CC1Cc2nc(SCC(=O)Nc3ccc4c(c3)OCO4)n(-c3ccc(F)cc3)c(=O)c2S1 (centres undefined),"inconclusive: 0.103 µM [activator, full curve, poor fit]",–
Cc1sc2ncnc(Sc3ccccc3C(=O)O)c2c1C,"inconclusive: 10.3 µM [falling, partial curve, poor fit]",–
O=C(Nc1ccccc1)NN(C(=O)CCl)c1ccccc1,active: 20.6 µM,–
CCOC(=O)/C=C/C(=O)Nc1nccs1,"inconclusive: 6.51 µM [falling, partial curve, poor fit]",–
Cc1ccc(-n2ncc3c(N4CCN(c5ccc(F)cc5)CC4)ncnc32)c(C)c1,"inconclusive: 3.26 µM [falling, full curve, poor fit]",–
Cc1ccc(OCC(=O)NNc2c3ccccc3nc3ccccc23)cc1,active: 18.4 µM,–
CCOC(=O)c1c(NC(=O)Cc2cccs2)sc(C(=O)N2CCCCC2)c1C,–,inactive: -16.9%
COC(=O)/C(=N\Nc1ccccc1)Sc1nnc(-c2ccc(OC)cc2)n1C,"inconclusive: 0.259 µM [falling, partial curve, poor fit]",–
Cc1ccsc1C(=O)N/N=C/c1ccc2c(c1)OCO2,"inconclusive: 2.31 µM [activator, partial curve]",–
CCCCNS(=O)(=O)c1ccc2nc(SCC(=O)N3CC(C)OC(C)C3)[nH]c2c1 (centres undefined),"inconclusive: 32.6 µM [falling, partial curve, poor fit]",–
Cc1ccc(S(=O)(=O)N2[C@@H](c3ccc(Br)cc3)C(C(=O)O)=CC[C@H]2c2cccc(C)c2)cc1,"inconclusive: 18.4 µM [falling, single point]",–
COc1cccc(Oc2ccc3nnc(C(F)(F)F)n3n2)c1,"inconclusive: 20.6 µM [activator, partial curve, poor fit]",–
COCOc1ccc(-c2oc3c(C/C=C(\C)CCC=C(C)C)ccc(O)c3c(=O)c2OCOC)c(OCOC)c1,–,inactive: 0.223%
CC(=O)N1CCc2c(sc(NC(=O)c3ccc([N+](=O)[O-])o3)c2C#N)C1,active: 25.9 µM,–
C[C@H](O)[C@@H]1C(=O)N2CCc3ccc(N4CCOCC4)cc3[C@@H]2C[C@@H]1N(C)C(=O)C(C)(C)C,–,inactive: -3.59%
COc1ccc(-c2nc3oc4cc(OC)ccc4c(=O)c3c(=O)n2Cc2ccco2)cc1,"inconclusive: 29.1 µM [falling, single point]",–
CC1(C2CC2)NC(=O)N(CC(=O)Nc2ccc(C(F)(F)F)cc2)C1=O (centres undefined),"inconclusive: 29.1 µM [falling, single point]",–
CC(C)(C)c1ccc(OCc2ccc(C(=O)N/N=C3\CC4CC=CC34)cc2)cc1 (centres undefined),"inconclusive: 6.51 µM [activator, single point]",–
COCCNc1nnc(Cc2ccccc2)c(=O)[nH]1,"inconclusive: 7.31 µM [activator, partial curve]",–

# Look-ups from the entries so far.
# Cc1ccc(-n2ncc3c(N4CCN(c5ccc(F)cc5)CC4)ncnc32)c(C)c1 – Potency: inconclusive: 3.26 µM [falling, full curve, poor fit]
# COc1cccc(Oc2ccc3nnc(C(F)(F)F)n3n2)c1 – Potency: inconclusive: 20.6 µM [activator, partial curve, poor fit]
# CCCCNS(=O)(=O)c1ccc2nc(SCC(=O)N3CC(C)OC(C)C3)[nH]c2c1 (centres undefined) – Potency: inconclusive: 32.6 µM [falling, partial curve, poor fit]
